The campaign covered roughly 59,000 compounds. About 6,500 (11%) were called active. The shares of active, inactive and inconclusive entries below differ from those in the screen. Cut-off read from the data, not from the text of the source: active = max dye-equivalent concentration above about 10 nM; inconclusive = mostly about 1.1 nM to 9.6 nM; inactive = weaker than that.
test: qHTS Assay for Spectroscopic Profiling in A350 Spectral Region; settings: Compound autofluorescence, 340/450 nm, Alexa 350 dye-equivalents; stronger effect = higher value

Structure (SMILES) | max dye-equivalent concentration
O=C1c2ccccc2-c2cc([N+](=O)[O-])c([N+](=O)[O-])cc21 | inactive
C=CCn1c(SCC(=O)C(C)(C)C)nnc1-c1ccccn1 | inconclusive: 1.5 nM
COc1cc([C@@H]2[C@H]3CNCC=C3C(C#N)=C(N)C2(C#N)C#N)ccc1OC(C)C | active: 15 nM
O=C(Nc1ccc2ccccc2c1)c1cnccn1 | inconclusive: 1.3 nM
O=C(CN1CCN(c2ncc(C(F)(F)F)cc2Cl)CC1)NC(=O)NCc1ccccc1 | active: 24 nM
O=S(=O)(NCCc1ccncc1)c1cc(Br)ccc1F | inactive
COc1ccc(C2NC3=C(CCC3)C3(C#N)C(OC)(OC)N=C(N)C23C#N)cc1 (stereo not given) | active: 97 nM
Cc1ccc(-c2cc(C(F)(F)F)n3ncc(C(=O)O)c3n2)cc1 | inconclusive: 7.9 nM
Cc1ccc(NCCNc2ccc(C)cc2)cc1 | inactive
O=C1O[C@H](CN2CCOCC2)CN1/N=C\c1ccc([N+](=O)[O-])o1 | inconclusive: 1.5 nM
Cc1cc(C)n2cc(CSc3nnnn3C)nc2n1 | active: 11 nM
CCc1ccc(-c2nnn(Cc3nc4ccccc4s3)n2)cc1 | inactive
Cc1cc(C(=O)CSC(C)c2nc3ccccc3c(=O)[nH]2)c(C)n1C (stereo not given) | inconclusive: 8.6 nM
O=C(NC1CCCCCC1)C1c2ccccc2C(=O)N1C1CC1 (stereo not given) | inactive
O=C(O)C1C2C=CC3(CN(Cc4ccccn4)C(=O)C13)O2 (stereo not given) | inconclusive: 2.2 nM
Cc1csc(SCC(=O)Nc2ccccn2)n1 | inconclusive: 3.8 nM
CCC1SC2=NC(C)=C(C(=O)OCCOC)C(c3ccc(C(=O)OC)cc3)N2C1=O (stereo not given) | inactive
c1ccc2c(c1)[nH]c1c(N3CCC4(CC3)OCCO4)ncnc12 | active: 13 nM
COc1cccc(Oc2ccc(N)cc2)c1 | inactive
O=S(=O)(c1ccc(OCC(O)CN2CCN(c3ccc(F)cc3)CC2)cc1)N1CCOCC1 (stereo not given) | inconclusive: 1.2 nM
CCN(CC)S(=O)(=O)N1CCC(C(=O)NC(C)CCc2ccccc2)CC1 (stereo not given) | inconclusive: 9.3 nM
CC1(C)CC(=O)c2sc(N3CCCCC3)nc2C1 | inconclusive: 1.6 nM
CCN(CC)CCN1C(=O)c2ccccc2NC1c1cc(OC)c(OC)c(OC)c1 (stereo not given) | active: 740 nM
COCCCNC(=O)CSc1nc2ccc(N3CCOCC3)cc2c(=O)n1CCc1ccccc1 | active: 69 nM

Structure (SMILES) | max dye-equivalent concentration
CCCc1noc(-c2ccc(-c3ccccc3)cc2)n1 | inactive
O=C(c1ccco1)N1CCC(c2nc(-c3ccc(F)cc3)no2)CC1 | inconclusive: 3.7 nM
COc1ccc(C(C)=O)cc1COC(=O)c1cccc(N(C)C)c1 | active: 27 nM
O=C(O)CCCc1nc2ccccc2s1 | inactive
CSC(=O)CC(=O)NC(=O)c1ccccc1 | inconclusive: 1.7 nM
COCCNC(=O)CN(CC1CCCO1)C(=O)CCC(=O)Nc1ccccn1 (stereo not given) | inactive
Cc1cc(=O)[nH]c(SCn2nnc3ccccc3c2=O)n1 | inactive
COC(=O)c1ccccc1NC(=O)c1ccccc1NS(C)(=O)=O | inconclusive: 1.2 nM
Cc1cccc(NC(=O)C(C)Oc2ccccc2C)n1 (stereo not given) | inconclusive: 1.1 nM
O=C(O)CCCNS(=O)(=O)c1ccc(NCc2ccccc2)c(C(=O)O)c1 | active: 27 nM
COc1ccc(-c2cc3nc(C4CCN(C(=O)OC(C)(C)C)CC4)c(C(=O)O)cn3n2)cc1 | inconclusive: 7.5 nM
CN(C)CCCCN1CCc2c(n(C)c3ccccc23)C1=O | inconclusive: 4.7 nM
COC(=O)c1ccccc1NC(=O)CSc1nc2ccccc2c(=O)[nH]1 | inactive
Cc1ccccc1Cc1c(C)nc2c(C(=O)NCc3ccco3)cnn2c1C | active: 15 nM
CCOC(=O)CCC(=O)NCc1ccc2c(c1)cc(C)n2C | inconclusive: 1.6 nM
O=S(=O)(c1ccccc1S(=O)(=O)N1CCCCC1)N1CCCCC1 | inconclusive: 1.4 nM
Cc1cccc2cc(COC(=O)C(C)(C)C)c(=O)[nH]c12 | inconclusive: 2.8 nM
COC(=O)Cc1c(C)c2ccc(OC(=O)c3ccco3)cc2oc1=O | active: 450 nM
O=C(Nc1nccs1)c1ccc(COc2ccc(Cl)cc2)o1 | inconclusive: 2 nM
Cc1ccc(S(=O)(=O)CCc2nnc(NC(=O)C3CCCO3)s2)cc1 (stereo not given) | inconclusive: 1.8 nM
COc1cc(C(=O)Nc2nc3ccccc3[nH]2)cc(OC)c1OC | inconclusive: 1.9 nM
O=C(NCc1cccs1)c1ccccc1C(=O)NCc1cccs1 | inconclusive: 6.3 nM
CCCCN1CC(C(=O)NC2CCCCC2)CC1=O (stereo not given) | inactive
COCCn1c(=O)c(-c2ccc(Cl)cc2)nc2cnc(N(C)C)nc21 | active: 11 nM

As a working copy, some entries already given:
Structure (SMILES) | max dye-equivalent concentration
O=S(=O)(NCCc1ccncc1)c1cc(Br)ccc1F | inactive
COc1ccc(C2NC3=C(CCC3)C3(C#N)C(OC)(OC)N=C(N)C23C#N)cc1 (stereo not given) | active: 97 nM

More structures follow:

Structure (SMILES) | max dye-equivalent concentration
c1ccc(-c2csc3nnc(SCc4ccc5c(c4)OCCO5)n23)cc1 | inconclusive: 1.1 nM
C/C(N)=C(\C#N)C(=O)NCCc1ccccn1 | active: 12 nM
Cn1c(=O)c2c(nc(CN3CCC(C(N)=O)CC3)n2Cc2c(F)cccc2Cl)n(C)c1=O | inconclusive: 1.9 nM
Cc1ccc(NC(=O)CSc2nnc(NC(=O)CN3CCOCC3)s2)cc1 | inconclusive: 1.3 nM
Cc1ccc(C)c(C(=O)c2c(C)nc3sccn23)c1 | inconclusive: 1.5 nM
Cc1c2cnccc2c(C)c2c1c1ccccc1n2CCOC(=O)c1ccccc1 | inconclusive: 1.9 nM
COc1cccc(C2C(C#N)=C(N)OC(C(C)(C)C)=C2C#N)c1 (stereo not given) | inconclusive: 2.4 nM
CC(C)NC(=O)CN(C(=O)CCC(=O)Nc1ccccn1)c1ccc(F)c(Cl)c1 | inactive
CCc1nn2c(=O)cc(CSc3nc4sc5c(c4c(=O)n3C)CCCC5)nc2s1 | inactive
O=C(NC12CC3CC(CC(C3)C1)C2)N1CCC(O)(c2ccc3c(c2)OCO3)CC1 | inactive
CN1CCN(c2ncc3nc(-c4cccs4)c(=O)n(Cc4cccs4)c3n2)CC1 | active: 11 nM
C=C(C)COc1ccc2c(C)c(C)c(=O)oc2c1OCC(=C)C | inconclusive: 2.2 nM
COc1ccc(CCNC(=O)Cn2nnc(-c3cccc(OC)c3OC)n2)cc1OC | inconclusive: 1.2 nM
CCOC(=O)C(O)(NC(=O)c1cccnc1)C(F)(F)F (stereo not given) | inactive
CS(=O)(=O)c1cccc(C(=O)Oc2ccccc2)c1 | inactive
O=C(Nc1c(Cl)cccc1Cl)C1CCC1 | inactive
O=C(CSc1nnc(-c2ccncc2)o1)Nc1ccccc1Cl | inconclusive: 1.4 nM
CC(=O)C1=C(O)C(=O)N(Cc2ccco2)C1c1ccc(F)cc1 (stereo not given) | inactive
O=C(O)CCc1ccc(-c2ccc(F)cc2)n1NC(=O)c1ccco1 | inconclusive: 1.5 nM
O=C(c1ccco1)N1CCn2c1nc1ccccc12 | inconclusive: 1.2 nM
CCN(CC)C(=O)CSc1nc2ncc(Br)cc2[nH]1 | inconclusive: 1.8 nM
Cc1[nH]nc(N=CC2=C(O)CC(C)(C)CC2=O)c1-c1ccc(Cl)cc1 | active: 26 nM
COC(=O)C1=CNC=C(C(=O)OC)C1c1ccccc1Cl | active: 14000 nM
COc1cccc(C(=O)Cn2c(N3CCOCC3)nc3c2c(=O)n(C)c(=O)n3C)c1 | inconclusive: 2 nM

6 compounds from above, sorted by molecular weight, rising:
Structure (SMILES) | max dye-equivalent concentration
O=C(O)CCCc1nc2ccccc2s1 | inactive
C/C(N)=C(\C#N)C(=O)NCCc1ccccn1 | active: 12 nM
COc1cccc(C2C(C#N)=C(N)OC(C(C)(C)C)=C2C#N)c1 (stereo not given) | inconclusive: 2.4 nM
Cc1ccc(-c2cc(C(F)(F)F)n3ncc(C(=O)O)c3n2)cc1 | inconclusive: 7.9 nM
COC(=O)c1ccccc1NC(=O)c1ccccc1NS(C)(=O)=O | inconclusive: 1.2 nM
CCN(CC)CCN1C(=O)c2ccccc2NC1c1cc(OC)c(OC)c(OC)c1 (stereo not given) | active: 740 nM

Going on with the list:

Structure (SMILES) | max dye-equivalent concentration
Cc1nc(SCC(=O)Nc2ccccc2)c2oc3ccccc3c2n1 | inactive
O=C(O)CCN1C(=O)c2ccccc2C1=O | inactive
COc1cc(C(=O)N(CCc2ccccc2)C2CC3CCC(C2)N3C)cc(OC)c1OC (stereo not given) | inactive
O=C(Nc1ccccc1-c1ccccc1)NC1CCN(C(=O)N2CCOCC2)CC1 | inactive
CC(=O)c1ccc(N2CCN(C(=O)C3(S(=O)(=O)c4ccc(Cl)cc4)CC3)CC2)cc1 | inconclusive: 1.4 nM
Cc1cc(C)n(-c2nc3ccccc3c(=O)n2OCc2ccc(F)cc2)n1 | inconclusive: 2 nM
O=S(=O)(/C=C/c1ccccc1)NCCc1ccccn1 | inconclusive: 1.4 nM
COc1ccccc1N(C(=O)c1ccco1)C(C(=O)NC1CCCC1)c1cccnc1 (stereo not given) | inactive
COc1ccc(Br)cc1CNc1ccc(O)cc1 | inactive
O=S(=O)(c1ccccc1C(F)(F)F)N1CCOCC1 | inconclusive: 9.1 nM
O=C(CCSc1nnc(-c2ccncc2)o1)Nc1ccc(F)cc1 | inactive
c1ccc2c(c1)NC1(CCCC1)n1c-2nc2ccccc21 | active: 4500 nM
CCN=C1SC(CC(=O)Nc2ccccc2OCC)C(=O)N1CC (stereo not given) | inactive
CC1CCCCN1CC(=O)NCc1ccc2c(c1)OCO2 (stereo not given) | active: 50 nM
CCN1C(=O)CC(C(=O)O)SC1=Nc1ccc(OC)cc1 (stereo not given) | inconclusive: 1.5 nM
COc1ccc(CCNC2CC(C)N(C)CC2C)cc1OC (stereo not given) | inconclusive: 4.9 nM
CC(C)c1ccc(/C(C(=O)O)=C(\O)C(=O)O)cc1 | inactive
Cc1cc2ccccc2c(=O)n1CC(=O)N(C)c1ccc(F)cc1 | inconclusive: 4.9 nM
Cc1nnc(NC(=O)CCC(=O)N2CCC(C)CC2)s1 | inconclusive: 2.1 nM
CCOc1ccccc1-c1nc(-c2ccc(NC(=O)c3ccc(Br)o3)cc2)no1 | inconclusive: 1.4 nM
CCCC(=O)Nc1ccc(OCC(O)CNC(C)C)c(C(C)=O)c1 (stereo not given) | inconclusive: 1.6 nM
Cc1cc(C(=O)CSc2nnc(-c3cccs3)o2)c(C)n1-c1ccccc1 | inactive
CCOC(=O)C1CCN(C(=O)c2cn(CCOC)c(=O)c3c2c2ccccc2n3C)CC1 | active: 620 nM

Reference: PubChem BioAssay AID590 (National Center for Advancing Translational Sciences (NCATS), 2007)
